Results reported in publication PMC3942006, “Ruthenium-Nitrosyl Complexes with Glycine, L-Alanine, L-Valine, L-Proline, D-Proline, L-Serine, L-Threonine, and L-Tyrosine: Synthesis, X-ray Diffraction Structures, Spectroscopic and Electrochemical Properties, and Antiproliferative Activity” (Inorganic Chemistry, 2014).

Legend:
[1] = Hydrolytic stability by 1H NMR spectroscopy; assay type: physicochemical; conditions: aqueous medium 0.1 M KCl, buffered at pH 7.4, over 24 h, 1.0 mM
Method: (§1) ^1H NMR spectra were recorded on a Bruker Avance III instrument (Ultrashiled Magnet) at 500.13 MHz at room temperature. DMSO-d6 was used as a solvent. Standard pulse programs were applied. ^1H chemical shifts were measured relative to the residual solvent peaks. The hydrolytic stability of complex 8 in 20 mM phosphate buffer at pH 7.4 (0.1 M (KCl) ionic strength) and in pure water, both containing 10% D2O, was followed by recording ^1H NMR spectra over 24 h. Complex concentration was 1.0 mM. Watergate water suppression program and 4,4-dimethyl-4-silapentane-1-sulfonic acid (DSS) internal standard were used. ATR-IR spectra were measured on a Bruker Vertex spectrometer. D7.4 values were determined by the traditional shake-flask method in n-octanol/buffered aqueous solution at pH 7.4 (N-(2-hydroxyethyl)piperazine-N′-ethanesulfonic acid (HEPES) buffer) and 298.0 ± 0.2 K, as described previously.[25] In the case of the complexes of L-Ala (2) and L-Val (3) the D7.4 values were determined in the presence of 0.1 M KCl as well. Two parallel experiments were performed for each sample. […] Circular dichroism (CD) and UV–vis spectra under physiological conditions (0.02 M phosphate buffer, pH 7.40 with 0.1 M KCl) were recorded on a Jasco J-815 spectrometer in an optical cell of 2 cm path length (l) in the wavelength range from 220 to 600 nm. […]

[2] = log D7.4 by shake-flask method, n-octanol/buffered aqueous solution; assay type: physicochemical; conditions: n-octanol/0.02 M HEPES pH 7.4, T = 298.0 K
Method: as §1

For `CCCC[N+](CCCC)(CCCC)CCCC.O=[N][Ru-2]1([Cl])([Cl])([Cl])[NH2+][C@@H](Cc2ccc(O)cc2)C(=O)[O]1` [complex 8, (nBu4N)[RuCl3(L-Tyr–H)(NO)]], the “hydrolytic stability: chemical shifts and shapes of all 1H NMR peaks” value [1] was “remained unchanged” and the “log D7.4” value [2] was “–1.16 ± 0.02”.
